Reference: US8119681B2, “2-[1-phenyl-5-hydroxy or methoxy-4alpha-methyl-hexahydrocyclopenta [ƒ]indazole-5-YL]ethyl phenyl derivatives as glucocorticoid receptor ligands” (Merck Sharp & Dohme Corp., priority 2006, dated 2012)
Some entries share one result that the patent states for a list of compounds. For part of these data: At least one compound was matched to its structure with a doubt left.

Columns and labels:
[1] = target: T1, human GR (Homo sapiens, UniProt P04150); experiment: Trans-Activation Modulation of Glucocorticoid Receptor (GRAMMER), MMTV-LUC reporter gene; type: cell-based; set-up: endogenous in cells; details: GRAMMER versus GITAR
T1 sequence (P04150 1-777): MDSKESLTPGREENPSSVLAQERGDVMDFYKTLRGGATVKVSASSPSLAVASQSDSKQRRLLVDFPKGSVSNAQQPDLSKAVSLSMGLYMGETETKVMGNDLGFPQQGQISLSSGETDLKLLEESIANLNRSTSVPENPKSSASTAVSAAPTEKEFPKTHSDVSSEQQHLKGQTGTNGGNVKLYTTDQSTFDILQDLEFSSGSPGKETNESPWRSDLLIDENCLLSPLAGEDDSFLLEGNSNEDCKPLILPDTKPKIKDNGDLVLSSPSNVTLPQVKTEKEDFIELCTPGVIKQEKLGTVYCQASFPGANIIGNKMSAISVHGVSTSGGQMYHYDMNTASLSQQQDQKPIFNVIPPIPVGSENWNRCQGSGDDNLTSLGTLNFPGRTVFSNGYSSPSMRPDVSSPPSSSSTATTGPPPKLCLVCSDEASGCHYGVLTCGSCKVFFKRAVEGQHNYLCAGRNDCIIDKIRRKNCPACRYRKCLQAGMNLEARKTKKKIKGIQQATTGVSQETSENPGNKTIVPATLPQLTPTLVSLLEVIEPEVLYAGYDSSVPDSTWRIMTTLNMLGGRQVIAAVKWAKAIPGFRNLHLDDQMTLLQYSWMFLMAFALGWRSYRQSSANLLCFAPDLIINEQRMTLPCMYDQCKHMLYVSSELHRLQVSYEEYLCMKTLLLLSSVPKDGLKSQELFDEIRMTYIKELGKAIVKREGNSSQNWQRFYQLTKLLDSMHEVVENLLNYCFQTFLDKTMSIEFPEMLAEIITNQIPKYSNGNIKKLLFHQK

[2] = target: T2, glucocorticoid receptor (GR) (Homo sapiens, UniProt P04150); experiment: Ligand binding assay (GR BIND), 3H-dexamethasone displacement, HeLa cell lysate; details: calculated using DEX as a reference
T2 construct: endogenous in cells; host or cells: HeLa (ATCC) cell lysate supernatant
T2 sequence (P04150 1-777): T1 sequence (P04150 1-777)
Method in brief: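 HeLa cell lysate supernatant in TEGM (pH 7.2, molybdate) incubated overnight at 4 °C with 3H-dexamethasone trace (6 nM stock) and serially diluted compound, 2% EtOH final. Bound receptor captured on hydroxylapatite, filtered and counted by scintillation; IC50 calculated with dexamethasone as reference.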

Row | Structure (SMILES) | maximal transactivation activity compared with maximal transrepression activity [1] | IC50 [2] [nM]
1 | C[C@]12Cc3cnn(-c4ccc(F)cc4)c3C=C1CC[C@@]2(O)CCc1cccc(F)c1CNS(=O)(=O)c1ccccc1F [Example 80, 2-fluoro-N-(2-fluoro-6-{2-[(4αS,5R)-1-(4-fluorophenyl)-5-hydroxy-4α-methyl-1,4,4α,5,6,7-hexahydrocyclopenta[f]indazol-5-yl]ethyl}benzyl)benzenesulfonamide] | maximal transactivation activity less then maximal transrepression activity | < 1000
2 | C[C@]12Cc3cnn(-c4ccc(F)cc4)c3C=C1CC[C@@]2(O)CCc1ccccc1CNS(C)(=O)=O [Example 87, N-(2-{2-[(4αS,5R)-1-(4-fluorophenyl)-5-hydroxy-4α-methyl-1,4,4α,5,6,7-hexahydrocyclopenta[f]indazol-5-yl]ethyl}benzyl)methanesulfonamide] | maximal transactivation activity less then maximal transrepression activity | < 1000
3 | C[C@]12Cc3cnn(-c4ccc(F)cc4)c3C=C1CC[C@@]2(O)CCc1ccccc1C(O)C(N)=O (stereo partly drawn) [Example 192, 2-(2-{2-[(4αS,5R)-1-(4-fluorophenyl)-5-hydroxy-4α-methyl-1,4,4α,5,6,7-hexahydrocyclopenta[f]indazol-5-yl]ethyl}phenyl)-2-hydroxyacetamide] | maximal transactivation activity less then maximal transrepression activity | < 1000
4 | C[C@]12Cc3cnn(-c4ccc(Cl)cc4)c3C=C1CC[C@@]2(O)CCc1cccc(F)c1C(N)=O [Example 185, 2-{2-[(4αS,5R)-1-(4-chlorophenyl)-5-hydroxy-4α-methyl-1,4,4α,5,6,7-hexahydrocyclopenta[f]indazol-5-yl]ethyl}-6-fluorobenzamide] | maximal transactivation activity less then maximal transrepression activity | < 1000
5 | CCOC1(OCC)CN(C(=O)c2ccccc2CC[C@]2(O)CCC3=Cc4c(cnn4-c4ccc(F)cc4)C[C@@]32C)C1 [Example 24, (4αS,5R)-5-(2-{2-[(3,3-diethoxyazetidin-1-yl)carbonyl]phenyl}ethyl)-1-(4-fluorophenyl)-4α-methyl-1,4,4α,5,6,7-hexahydrocyclopenta[f]indazol-5-ol] | maximal transactivation activity less then maximal transrepression activity | < 1000
6 | C[C@]12Cc3cnn(-c4ccc(F)cc4)c3C=C1CC[C@@]2(O)CCc1ccccc1C(=O)NCC1CC1 [Example 37, N-(cyclopropylmethyl)-2-{2-[(4αS,5R)-1-(4-fluorophenyl)-5-hydroxy-4α-methyl-1,4,4α,5,6,7-hexahydrocyclopenta[r]indazol-5-yl]ethyl}benzamide] | maximal transactivation activity less then maximal transrepression activity | < 1000
7 | CCNC(=O)c1ccccc1CC[C@]1(O)CCC2=Cc3c(cnn3-c3cccc(F)c3)C[C@@]21C [Example 36, N-ethyl-2-{2-[(4αS,5R)-1-(3-fluorophenyl)-5-hydroxy-4α-methyl-1,4,4α,5,6,7-hexahydrocyclopenta[f]indazol-5-yl]ethyl}benzamide] | maximal transactivation activity less then maximal transrepression activity | < 1000
8 | C[C@]12Cc3cnn(-c4ccc(F)cc4)c3C=C1CC[C@@]2(O)CCc1cccc(F)c1[C@@H](N)C(F)(F)F [Example 152, (4αS,5R)-5-(2-{2-[(1R)-1-amino-2,2,2-trifluoroethyl]-3-fluorophenyl}ethyl)-1-(4-fluorophenyl)-4α-methyl-1,4,4α,5,6,7-hexahydrocyclopenta[f]indazol-5-ol] | maximal transactivation activity less then maximal transrepression activity | < 1000
9 | C[C@]12Cc3cnn(-c4ccc(F)cc4)c3C=C1CC[C@@]2(O)CCc1ccccc1NS(C)(=O)=O [Example 115, N-(2-{2-[(4αS,5R)-1-(4-fluorophenyl)-5-hydroxy-4α-methyl-1,4,4α,5,6,7-hexahydrocyclopenta[f]indazol-5-yl]ethyl}phenyl)methanesulfonamide] | maximal transactivation activity less then maximal transrepression activity | < 1000
10 | CC(C)(NC(=O)c1ccccc1CC[C@]1(O)CCC2=Cc3c(cnn3-c3ccc(F)cc3)C[C@@]21C)C(N)=O [Example 70, N-(2-amino-1,1-dimethyl-2-oxoethyl)-2-{2-[(4αS,5R)-1-(4-fluorophenyl)-5-hydroxy-4α-methyl-1,4,4α,5,6,7-hexahydrocyclopenta[f]indazol-5-yl]ethyl}benzamide] | maximal transactivation activity less then maximal transrepression activity | < 1000
11 | C[C@]12Cc3cnn(-c4ccccc4)c3C=C1CC[C@@]2(O)CCc1ccccc1S(N)(=O)=O [Example 141, 2-{2-[(4αS,5R)-5-hydroxy-4α-methyl-1-phenyl-1,4,4α,5,6,7-hexahydrocyclopenta[f]indazol-5-yl]ethyl}benzenesulfonamide] | maximal transactivation activity less then maximal transrepression activity | < 1000
12 | CC1(NC(=O)c2ccccc2CC[C@]2(O)CCC3=Cc4c(cnn4-c4ccccc4)C[C@@]32C)CC1 [Example 34, 2-{2-[(4αS,5R)-5-hydroxy-4α-methyl-1-phenyl-1,4,4α,5,6,7-hexahydrocyclopenta[f]indazol-5-yl]ethyl}-N-(1-methylcyclopropyl)benzamide] | maximal transactivation activity less then maximal transrepression activity | < 1000
13 | CCOC(=O)Oc1ccccc1CC[C@]1(O)CCC2=Cc3c(cnn3-c3ccc(F)cc3)C[C@@]21C [Example 17, Ethyl-(2-(2-[(4αS,5R)-1-(4-fluorophenyl)-5-hydroxy-4α-methyl-1,4,4α,5,6,7-hexahydrocyclopenta(f)indazol-5-yl]ethyl)phenyl)carbonate] | maximal transactivation activity less then maximal transrepression activity | < 1000
14 | C[C@]12Cc3cnn(-c4ccc(F)cc4)c3C=C1CC[C@@]2(O)CCc1cccc(F)c1CNS(=O)(=O)C(Cl)Cl [Example 85, 1,1-dichloro-N-(2-fluoro-6-{2-[(4αS,5R)-1-(4-fluorophenyl)-5-hydroxy-4α-methyl-1,4,4α,5,6,7-hexahydrocyclopenta[f]indazol-5-yl]ethyl}benzyl)methanesulfonamide] | maximal transactivation activity less then maximal transrepression activity | < 1000
15 | CCS(=O)(=O)Nc1ccccc1CC[C@]1(O)CCC2=Cc3c(cnn3-c3ccc(F)cc3)C[C@@]21C [Example 114, N-(2-{2-[(4αS,5R)-1-(4-fluorophenyl)-5-hydroxy-4α-methyl-1,4,4α,5,6,7-hexahydrocyclopenta[f]indazol-5-yl]ethyl}phenyl)ethanesulfonamide] | maximal transactivation activity less then maximal transrepression activity | < 1000
16 | Cn1cnc(S(=O)(=O)NCc2c(F)cccc2CC[C@]2(O)CCC3=Cc4c(cnn4-c4ccc(F)cc4)C[C@@]32C)c1 [Example 93, N-(2-fluoro-6-{2-[(4αS,5R)-1-(4-fluorophenyl)-5-hydroxy-4α-methyl-1,4,4α,5,6,7-hexahydrocyclopenta[f]indazol-5-yl]ethyl}benzyl)-1-methyl-1H-imidazole-4-sulfonamide] | maximal transactivation activity less then maximal transrepression activity | < 1000
17 | CC(C(N)=O)c1ccccc1CC[C@]1(O)CCC2=Cc3c(cnn3-c3ccc(F)cc3)C[C@@]21C (single isomer, unassigned) [Example 196] | maximal transactivation activity less then maximal transrepression activity | < 1000
18 | CCNC(=O)Nc1c(F)cccc1CC[C@]1(O)CCC2=Cc3c(cnn3-c3ccc(F)cc3)C[C@@]21C [Example 132, N-ethyl-N′-(2-fluoro-6-{2-[(4αS,5R)-1-(4-fluorophenyl)-5-hydroxy-4α-methyl-1,4,4α,5,6,7-hexahydrocyclopenta[f]indazol-5-yl]ethyl}phenyl)urea] | maximal transactivation activity less then maximal transrepression activity | < 1000
